# From paper PMC10556562
# Amino acid sequences for entries named in this document (tags omitted).
# UniProt Q95X44: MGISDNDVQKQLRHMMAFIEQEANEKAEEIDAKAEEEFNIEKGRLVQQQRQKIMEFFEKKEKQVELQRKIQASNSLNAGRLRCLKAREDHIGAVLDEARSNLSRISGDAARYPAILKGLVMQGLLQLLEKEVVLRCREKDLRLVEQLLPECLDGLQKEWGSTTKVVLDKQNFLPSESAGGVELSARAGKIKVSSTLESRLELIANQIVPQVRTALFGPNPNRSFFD
# UniProt Q19626: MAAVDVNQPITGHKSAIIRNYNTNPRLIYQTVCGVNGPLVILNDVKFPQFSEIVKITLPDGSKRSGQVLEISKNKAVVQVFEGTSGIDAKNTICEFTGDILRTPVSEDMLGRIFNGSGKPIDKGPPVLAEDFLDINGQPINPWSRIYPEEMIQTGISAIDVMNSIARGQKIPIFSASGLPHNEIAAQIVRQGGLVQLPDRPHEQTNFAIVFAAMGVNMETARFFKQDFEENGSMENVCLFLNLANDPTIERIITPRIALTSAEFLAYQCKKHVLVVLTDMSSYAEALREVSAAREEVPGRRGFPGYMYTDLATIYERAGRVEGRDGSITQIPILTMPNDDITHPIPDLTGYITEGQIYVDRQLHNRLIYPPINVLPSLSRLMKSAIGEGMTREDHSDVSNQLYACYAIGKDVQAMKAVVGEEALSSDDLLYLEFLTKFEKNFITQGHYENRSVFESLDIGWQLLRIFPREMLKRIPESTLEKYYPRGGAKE
# UniProt P09446: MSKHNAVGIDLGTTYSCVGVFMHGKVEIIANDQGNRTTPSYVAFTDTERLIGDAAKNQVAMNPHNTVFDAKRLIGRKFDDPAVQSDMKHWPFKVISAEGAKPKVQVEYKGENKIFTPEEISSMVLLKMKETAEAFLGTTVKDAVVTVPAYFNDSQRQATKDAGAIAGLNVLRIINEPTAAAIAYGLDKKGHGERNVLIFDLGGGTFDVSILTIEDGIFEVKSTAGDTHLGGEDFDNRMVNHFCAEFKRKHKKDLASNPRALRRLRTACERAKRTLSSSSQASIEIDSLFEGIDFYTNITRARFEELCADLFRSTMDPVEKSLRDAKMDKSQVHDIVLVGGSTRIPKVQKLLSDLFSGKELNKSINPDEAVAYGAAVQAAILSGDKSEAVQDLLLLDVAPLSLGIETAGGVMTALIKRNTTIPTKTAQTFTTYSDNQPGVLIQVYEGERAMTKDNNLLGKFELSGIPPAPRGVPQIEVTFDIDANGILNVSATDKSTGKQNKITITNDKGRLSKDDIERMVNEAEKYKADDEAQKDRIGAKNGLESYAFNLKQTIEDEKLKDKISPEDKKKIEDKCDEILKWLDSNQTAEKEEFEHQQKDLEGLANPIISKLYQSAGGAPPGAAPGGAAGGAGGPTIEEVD
# UniProt Q9XW92: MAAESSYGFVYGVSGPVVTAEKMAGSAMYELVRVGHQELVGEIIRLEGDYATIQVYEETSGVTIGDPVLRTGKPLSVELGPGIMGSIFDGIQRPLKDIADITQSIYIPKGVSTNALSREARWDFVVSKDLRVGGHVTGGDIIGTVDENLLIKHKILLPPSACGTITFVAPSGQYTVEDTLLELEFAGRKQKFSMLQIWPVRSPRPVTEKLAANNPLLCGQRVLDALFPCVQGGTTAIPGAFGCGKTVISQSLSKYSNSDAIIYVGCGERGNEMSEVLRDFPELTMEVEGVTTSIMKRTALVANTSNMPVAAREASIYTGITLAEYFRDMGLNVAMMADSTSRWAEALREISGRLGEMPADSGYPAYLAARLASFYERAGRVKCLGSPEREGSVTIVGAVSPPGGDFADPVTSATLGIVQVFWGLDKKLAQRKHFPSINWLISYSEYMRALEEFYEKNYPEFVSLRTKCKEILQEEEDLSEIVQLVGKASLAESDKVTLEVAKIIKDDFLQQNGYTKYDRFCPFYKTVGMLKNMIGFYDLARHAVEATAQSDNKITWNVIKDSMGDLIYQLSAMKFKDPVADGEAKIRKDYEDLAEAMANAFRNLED
# These are yes or no findings as the source states them, for the method shown. In cells and extracts the contact can be indirect. These calls come from enrichment with a bait or labelling near it, and not all partners need be listed. Tags and fused reporters may be left off the sequences shown.
# T1: mCherry-tagged C. elegans Parkin – Parkinson's Disease Related 1 (PDR-1) (C. elegans) (UniProt Q9XUS3)
# T1 sequence: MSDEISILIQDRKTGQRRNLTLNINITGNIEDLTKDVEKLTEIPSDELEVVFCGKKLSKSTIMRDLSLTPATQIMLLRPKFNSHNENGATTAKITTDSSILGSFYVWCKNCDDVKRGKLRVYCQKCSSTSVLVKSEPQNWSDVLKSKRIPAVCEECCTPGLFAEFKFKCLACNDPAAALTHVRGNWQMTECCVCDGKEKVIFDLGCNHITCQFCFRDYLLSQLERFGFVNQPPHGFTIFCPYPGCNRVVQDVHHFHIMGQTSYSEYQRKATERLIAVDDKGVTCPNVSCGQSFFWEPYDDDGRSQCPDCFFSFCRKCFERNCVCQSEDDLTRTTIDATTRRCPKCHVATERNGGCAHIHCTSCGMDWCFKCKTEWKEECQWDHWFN
# Target: T1, mCherry-tagged C. elegans Parkin – Parkinson's Disease Related 1 (PDR-1) (C. elegans)
# Assay: affinity purification with mass spectrometry; mCherry::PDR-1 precipitated with RFP-trap magnetic beads (1 h, room temperature) from whole-animal extracts sonicated in M9 buffer and precleaned on control magnetic beads; five washes with M9; eluate run on SDS-PAGE, Coomassie-stained bands digested in gel and analysed by LC-MS/MS; extracts of the parental strain dmaIs48 and of dmaIs48; rde-1(dma341)
row,Molecule,binding
1,ATP synthase subunit ATP-1,binds
2,Vacuolar ATPase subunit VHA-8 (from UniProt Q95X44 1-226),binds
3,ATP synthase subunit ATP-2,binds
4,"14-3-3-like protein FTT-2 (protein, UniProt Q20655 1-248) MSDGKEELVNRAKLAEQAERYDDMAASMKKVTELGAELSNEERNLLSVAYKNVVGARRSSWRVISSIEQKTEGSEKKQQMAKEYREKVEKELRDICQDVLNLLDKFLIPKAGAAESKVFYLKMKGDYYRYLAEVASGDDRNSVVEKSQQSYQEAFDIAKDKMQPTHPIRLGLALNFSVFFYEILNAPDKACQLAKQAFDDAIAELDTLNEDSYKDSTLIMQLLRDNLTLWTSDAATDDTDANETEGGN",binds
5,"Voltage Dependent Anion Channel VDAC-1 (protein, UniProt Q21752 1-283) MAPPTFADLGKSAKDLFNKGYNFGFLKIDSTTRAGDNKEVEFKSAASHNIGSGKLGGNLDVKYKIPQYGITLTEKWNTENQLGTVIEVNEQFGRGLKVTLDSLYAPHAGKRSGKVKLDWALPTARVTADVGVTSAPVINAAGVFSRDGWLIGAAATFDSSSNKLAATSLAFGHSTPQYTLHSFVINSTDFGASLYHKVASNVEVGTQLGWKVGGNGADYALATKYAPSRDLTVRAKVNSSSQVAVAATHSLSPALKLTLSTQFNLAANDAHKFGLGLEFDPSN",binds
6,"14-3-3-like protein PAR-5 (protein, UniProt P41932 1-248) MSDTVEELVQRAKLAEQAERYDDMAAAMKKVTEQGQELSNEERNLLSVAYKNVVGARRSSWRVISSIEQKTEGSEKKQQLAKEYRVKVEQELNDICQDVLKLLDEFLIVKAGAAESKVFYLKMKGDYYRYLAEVASEDRAAVVEKSQKAYQEALDIAKDKMQPTHPIRLGLALNFSVFYYEILNTPEHACQLAKQAFDDAIAELDTLNEDSYKDSTLIMQLLRDNLTLWTSDVGAEDQEQEGNQEAGN",binds

# Next, values leading:
row,binding,Molecule
1,binds,Vacuolar ATPase subunit VHA-12 (from UniProt Q19626 1-491)
2,binds,Heat Shock 70kDa HSP-1 (from UniProt P09446 1-640)
3,binds,Vacuolar ATPase subunit VHA-13 (from UniProt Q9XW92 1-606)
4,binds,"adenosine triphosphate (ATP)-Citrate Lyase ACLY-1 (protein, UniProt P53585 1-1106) MSAKAVSELSGKEVLYKYFEPSGLLSAPHAFHVKAGENFDEIANKYEWLARDNKGVIKPDQLIKRRGKLGLVKIGTPQELKAWFEKTGDSYVRVGQTEGRLHTFIVEPFCAHTEKDEMYIAIYSERFRDVIMFYEQGGVDIGDVEEKARTVSVPVQLNENAMTPSDEELTTLLGPLKDSDIVRRFVVELYKAYKDLHFTYLEINPFVLLNNQIHVLDLAARLDETANFLCADKWKSRLTPYGGPNHVEFPAPFGRDLTSEEQYISEMDAKTGASLKLTILNRKGRVWTMVAGGGASVVFTDTVCDLGGASELANYGEYSGDPSESQTYEYAKTLLSVMTEGTPRPDGKVLIIGGSIANFTNVAKTFGGIVRAFETFVSKLKEHKVTIFVRRGGPNYQEGLRRIKDAATKLELPIHVFGPETHMTAIVGAALGVKPMPTVPTAPQTTGQFLLSPERNTGGTERAPPSPAANATPTEHPLTTAQQNKLKSFRGLFEDDTKAIIWGQQAKAIQGMLDFDYVCRRSSPSVVASTYPFTGDNKQKYYFGQKEILIPAYKSMAKAFATHPDASIMVTFASMRSVFETVLEALEFPQIKVIAIIAEGVPENQTRKLLKIAHDRGVTLVGPATVGGIKPGCFKIGNTGGMMDNILASKLYRPGSVAYVSRSGGMSNELNNIISQNTNGVYEGIAIGGDRYPGSTYTDHVIRYQNDDRVKMIVLLGEVGGVEEYKIVDLLKQKKVTKPLVAWCIGTCADHITSEVQFGHAGASANALGETAACKNAALRASGALVPESFDDLGNKIRQTYDELVSQQIIVPQPEVPPPAVPMDYAWARELGLIRKPASFMTSICDERGEELNYAGVPITKVLESDMGIGGVLGLLWFQKRLPPHANKFIEICLMLTADHGPAVSGAHNTIVCARAGKDLISSLTSGLLTIGDRFGGALDGAARQFSEAFDQGWSANQFVSEMRKKGKHIMGIGHRVKSINNPDKRVEILKRFAMDKKEFAQETPLFEYALEVEKITTAKKPNLILNVDGAIAILFVDILRHSGMFTKQEAEETIEIGSLNGLFVLGRSIGFIGHYLDQSRLKQGLYRHPWDDISYIMPESNLVKF"
5,binds,"mitochondrial Adenine Nucleotide Translocator ANT-1.1 (protein, UniProt O45865 1-300) MSKEKSFDTKKFLIDLASGGTAAAVSKTAVAPIERVKLLLQVQDASKAIAVDKRYKGIMDVLIRVPKEQGVAALWRGNLANVIRYFPTQAMNFAFKDTYKAIFLEGLDKKKDFWKFFAGNLASGGAAGATSLCFVYPLDFARTRLAADIGKANDREFKGLADCLIKIVKSDGPIGLYRGFFVSVQGIIIYRAAYFGMFDTAKMVFASDGQKLNFFAAWGIAQVVTVGSGILSYPWDTVRRRMMMQSGRKDILYKNTLDCAKKIIQNEGMSAMFKGALSNVFRGTGGALVLAIYDEIQKFL"
